Values from PubChem BioAssay AID1159578 (Peter MacCallum Cancer Centre, 2015).

- Assay: 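Knock-downs that alter how fast lymphatic endothelial cells migrate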 (primary screen)
- Cells: human lymphatic endothelial cells
- Knock-down reagent: siRNA pool against human genes, 40 nM
- Duration: 48 h after transfection
- Read-out: 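Cells stained with dye and imaged after a scratch; covered wound area and nuclei counted, duplicates averaged, migration set against mock wells and turned into a robust z-score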
- Reading the numbers: migration robust z-score: higher = faster migration into the scratch; migration relative to mock: higher = more scratch area covered than mock; nuclei per well: higher = more cells in the well
- Rule for the call: 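Pools averaging fewer than 3300 nuclei are never called; remaining pools count as changed when migration robust z lies outside -2 to 2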
- Calls: active = migration changed; inactive = no migration change, or too few cells
The deposit covers about 18,000 reagents; below is a random part of them. In the full data, about 1,030 (5.7%) got an active call. 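Inactive calls also include pools with fewer than 3300 nuclei, whose migration was not assessed.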 The raw values are shown without normalisation.

The opening 2 records as a preview:
no.	target	migration robust z-score	migration class with cell-count check	migration relative to mock	nuclei per well, duplicate mean	Call
1	POLR1A (RNA polymerase I subunit A)	-0.05	migration z between -2 and 2; enough cells	0.8	5010	inactive
2	MRPL48 (mitochondrial ribosomal protein L48)	1.24	migration z between -2 and 2; enough cells	1.21	7035	inactive

Main list, from the first entry:
no.	target	migration robust z-score	migration class with cell-count check	migration relative to mock	nuclei per well, duplicate mean	Call
1	POLR1A (RNA polymerase I subunit A)	-0.05	migration z between -2 and 2; enough cells	0.8	5010	inactive
2	MRPL48 (mitochondrial ribosomal protein L48)	1.24	migration z between -2 and 2; enough cells	1.21	7035	inactive
3	STYK1 (STY kinase 1)	-3.87	migration z below -2; enough cells	0.06	4300	active
4	BCO2 (beta-carotene oxygenase 2)	0.96	migration z between -2 and 2; enough cells	0.99	5929	inactive
5	CCDC85B (coiled-coil domain containing 85B)	-1.11	migration z between -2 and 2; enough cells	0.6	6090	inactive
6	FCRL5 (Fc receptor like 5)	1.68	migration z between -2 and 2; enough cells	1.32	6780	inactive
7	DEFB119 (defensin beta 119)	0.52	migration z between -2 and 2; enough cells	1.02	4769	inactive
8	PCDHB11 (protocadherin beta 11)	0.14	migration z between -2 and 2; enough cells	0.92	5408	inactive
9	CHN2 (chimerin 2)	0.91	migration z between -2 and 2; enough cells	1.12	5584	inactive
10	OPA1 (OPA1 mitochondrial dynamin like GTPase)	-0.88	migration z between -2 and 2; enough cells	0.64	4491	inactive
11	CCDC121 (coiled-coil domain containing 121)	0.2	migration z between -2 and 2; enough cells	0.94	6236	inactive
12	CSDE1 (cold shock domain containing E1)	-0.72	migration z between -2 and 2; enough cells	0.66	6005	inactive
13	RAB7B (RAB7B, member RAS oncogene family)	1.06	migration z between -2 and 2; enough cells	1.16	6674	inactive
14	TRIM64 (tripartite motif containing 64)	-1.06	migration z between -2 and 2; enough cells	0.6	4318	inactive
15	OR51B4 (olfactory receptor family 51 subfamily B member 4)	-0.76	migration z between -2 and 2; enough cells	0.69	6798	inactive
16	SPIN1 (spindlin 1)	-0.27	migration z between -2 and 2; enough cells	0.82	6692	inactive
17	WDR25 (WD repeat domain 25)	-0.7	migration z between -2 and 2; enough cells	0.7	5738	inactive
18	TMED4 (transmembrane p24 trafficking protein 4)	-1.09	under 3300 nuclei; migration not judged	0.6	3064	inactive
19	FAM167B (family with sequence similarity 167 member B)	-0.44	migration z between -2 and 2; enough cells	0.77	5866	inactive
20	QSOX1 (quiescin sulfhydryl oxidase 1)	-3.58	under 3300 nuclei; migration not judged	0.12	3128	inactive
21	DRC10 (dynein regulatory complex subunit 10)	2.69	migration z above 2; enough cells	1.58	7354	active
22	BABAM2 (BRISC and BRCA1 A complex member 2)	-2.45	under 3300 nuclei; migration not judged	0.26	3231	inactive
23	PRSS22 (serine protease 22)	-0.47	migration z between -2 and 2; enough cells	0.71	5098	inactive
